The record followed here is paper PMC7985502.

The labels stand for the following.
B1: RNA helicase and ATPase (UPF1) (protein, UniProt Q92900 1-1129)
chain: MSVEAYGPSSQTLTFLDTEEAELLGADTQGSEFEFTDFTLPSQTQTPPGGPGGPGGGGAGGPGGAGAGAAAGQLDAQVGPEGILQNGAVDDSVAKTSQLLAELNFEEDEEDTYYTKDLPIHACSYCGIHDPACVVYCNTSKKWFCNGRGNTSGSHIVNHLVRAKCKEVTLHKDGPLGETVLECYNCGCRNVFLLGFIPAKADSVVVLLCRQPCASQSSLKDINWDSSQWQPLIQDRCFLSWLVKIPSEQEQLRARQITAQQINKLEELWKENPSATLEDLEKPGVDEEPQHVLLRYEDAYQYQNIFGPLVKLEADYDKKLKESQTQDNITVRWDLGLNKKRIAYFTLPKTDSGNEDLVIIWLRDMRLMQGDEICLRYKGDLAPLWKGIGHVIKVPDNYGDEIAIELRSSVGAPVEVTHNFQVDFVWKSTSFDRMQSALKTFAVDETSVSGYIYHKLLGHEVEDVIIKCQLPKRFTAQGLPDLNHSQVYAVKTVLQRPLSLIQGPPGTGKTVTSATIVYHLARQGNGPVLVCAPSNIAVDQLTEKIHQTGLKVVRLCAKSREAIDSPVSFLALHNQIRNMDSMPELQKLQQLKDETGELSSADEKRYRALKRTAERELLMNADVICCTCVGAGDPRLAKMQFRSILIDESTQATEPECMVPVVLGAKQLILVGDHCQLGPVVMCKKAAKAGLSQSLFERLVVLGIRPIRLQVQYRMHPALSAFPSNIFYEGSLQNGVTAADRVKKGFDFQWPQPDKPMFFYVTQGQEEIASSGTSYLNRTEAANVEKITTKLLKAGAKPDQIGIITPYEGQRSYLVQYMQFSGSLHTKLYQEVEIASVDAFQGREKDFIILSCVRANEHQGIGFLNDPRRLNVALTRARYGVIIVGNPKALSKQPLWNHLLNYYKEQKVLVEGPLNNLRESLMQFSKPRKLVNTINPGARFMTTAMYDAREAIIPGSVYDRSSQGRPSSMYFQTHDQIGMISAGPSHVAAMNIPIPFNLVMPPMPPPGYFGQANGPAAGRGTPKGKTGRGGRQKNRFGLPGPSQTNLPNSQASQDVASQPFSQGALTQGYISMSQPSQMSQPGLSQPELSQDSYLGDEFKSQIDVALSQDSTYQGERAYQHGGVTGLSQY
B2: SEC24A (protein, UniProt O95486 1-1093)
chain: MSQPGIPASGGAPASLQAQNGAALASGSPYTNGPVQNALLSSQESVSQGYNFQLPGSYPHPIPAKTLNPVSGQSNYGGSQGSGQTLNRPPVASNPVTPSLHSGPAPRMPLPASQNPATTPMPSSSFLPEANLPPPLNWQYNYPSTASQTNHCPRASSQPTVSGNTSLTTNHQYVSSGYPSLQNSFIKSGPSVPPLVNPPLPTTFQPGAPHGPPPAGGPPPVRALTPLTSSYRDVPQPLFNSAVNQEGITSNTNNGSMVVHSSYDEIEGGGLLATPQLTNKNPKMSRSVGYSYPSLPPGYQNTTPPGATGVPPSSLNYPSGPQAFTQTPLGANHLTTSMSGLSLQPEGLRVVNLLQERNMLPSTPLKPPVPNLHEDIQKLNCNPELFRCTLTSIPQTQALLNKAKLPLGLLLHPFKDLVQLPVVTSSTIVRCRSCRTYINPFVSFLDQRRWKCNLCYRVNDVPEEFLYNPLTRVYGEPHRRPEVQNATIEFMAPSEYMLRPPQPPVYLFVFDVSHNAVETGYLNSVCQSLLDNLDLLPGNTRTKIGFITFDSTIHFYGLQESLSQPQMLIVSDIEDVFIPMPENLLVNLNESKELVQDLLKTLPQMFTKTLETQSALGPALQAAFKLMSPTGGRMSVFQTQLPTLGVGALKPREEPNHRSSAKDIHMTPSTDFYKKLALDCSGQQVAVDLFLLSGQYSDLASLGCISRYSAGSVYYYPSYHHQHNPVQVQKLQKELQRYLTRKIGFEAVMRIRCTKGLSIHTFHGNFFVRSTDLLSLPNVNPDAGYAVQMSVEESLTDTQLVSFQSALLYTSSKGERRIRVHTLCLPVVSTLNDVFLGADVQAISGLLANMAVDRSMTASLSDARDALVNAVIDSLSAYRSSVLSNQQPGLMVPFSLRLFPLFVLALLKQKSFQTGTNARLDERIFAMCQVKNQPLVYLMLTTHPSLYRVDNLSDEGALNISDRTIPQPPILQLSVEKLSRDGAFLMDAGSVLMLWVGKNCTQNFLSQVLGVQNYASIPQPMTDLPELDTPESARIIAFISWLREQRPFFPILYVIRDESPMKANFLQNMIEDRTESALSYYEFLLHIQQQVNK
B3: SMC1A (protein, UniProt Q14683 1-1233)
chain: MGFLKLIEIENFKSYKGRQIIGPFQRFTAIIGPNGSGKSNLMDAISFVLGEKTSNLRVKTLRDLIHGAPVGKPAANRAFVSMVYSEEGAEDRTFARVIVGGSSEYKINNKVVQLHEYSEELEKLGILIKARNFLVFQGAVESIAMKNPKERTALFEEISRSGELAQEYDKRKKEMVKAEEDTQFNYHRKKNIAAERKEAKQEKEEADRYQRLKDEVVRAQVQLQLFKLYHNEVEIEKLNKELASKNKEIEKDKKRMDKVEDELKEKKKELGKMMREQQQIEKEIKEKDSELNQKRPQYIKAKENTSHKIKKLEAAKKSLQNAQKHYKKRKGDMDELEKEMLSVEKARQEFEERMEEESQSQGRDLTLEENQVKKYHRLKEEASKRAATLAQELEKFNRDQKADQDRLDLEERKKVETEAKIKQKLREIEENQKRIEKLEEYITTSKQSLEEQKKLEGELTEEVEMAKRRIDEINKELNQVMEQLGDARIDRQESSRQQRKAEIMESIKRLYPGSVYGRLIDLCQPTQKKYQIAVTKVLGKNMDAIIVDSEKTGRDCIQYIKEQRGEPETFLPLDYLEVKPTDEKLRELKGAKLVIDVIRYEPPHIKKALQYACGNALVCDNVEDARRIAFGGHQRHKTVALDGTLFQKSGVISGGASDLKAKARRWDEKAVDKLKEKKERLTEELKEQMKAKRKEAELRQVQSQAHGLQMRLKYSQSDLEQTKTRHLALNLQEKSKLESELANFGPRINDIKRIIQSREREMKDLKEKMNQVEDEVFEEFCREIGVRNIREFEEEKVKRQNEIAKKRLEFENQKTRLGIQLDFEKNQLKEDQDKVHMWEQTVKKDENEIEKLKKEEQRHMKIIDETMAQLQDLKNQHLAKKSEVNDKNHEMEEIRKKLGGANKEMTHLQKEVTAIETKLEQKRSDRHNLLQACKMQDIKLPLSKGTMDDISQEEGSSQGEDSVSGSQRISSIYAREALIEIDYGDLCEDLKDAQAEEEIKQEMNTLQQKLNEQQSVLQRIAAPNMKAMEKLESVRDKFQETSDEFEAARKRAKKAKQAFEQIKKERFDRFNACFESVATNIDEIYKALSRNSSAQAFLGPENPEEPYLDGINYNCVAPGKRFRPMDNLSGGEKTVAALALLFAIHSYKPAPFFVLDEIDAALDNTNIGKVANYIKEQSTCNFQAIVISLKEEFYTKAESLIGVYPEQGDCVISKVLTFDLTKYPDANPNPNEQ
B4: SEC31A (protein, UniProt O94979 1-1220)
chain: MKLKEVDRTAMQAWSPAQNHPIYLATGTSAQQLDATFSTNASLEIFELDLSDPSLDMKSCATFSSSHRYHKLIWGPYKMDSKGDVSGVLIAGGENGNIILYDPSKIIAGDKEVVIAQNDKHTGPVRALDVNIFQTNLVASGANESEIYIWDLNNFATPMTPGAKTQPPEDISCIAWNRQVQHILASASPSGRATVWDLRKNEPIIKVSDHSNRMHCSGLAWHPDVATQMVLASEDDRLPVIQMWDLRFASSPLRVLENHARGILAIAWSMADPELLLSCGKDAKILCSNPNTGEVLYELPTNTQWCFDIQWCPRNPAVLSAASFDGRISVYSIMGGSTDGLRQKQVDKLSSSFGNLDPFGTGQPLPPLQIPQQTAQHSIVLPLKKPPKWIRRPVGASFSFGGKLVTFENVRMPSHQGAEQQQQQHHVFISQVVTEKEFLSRSDQLQQAVQSQGFINYCQKKIDASQTEFEKNVWSFLKVNFEDDSRGKYLELLGYRKEDLGKKIALALNKVDGANVALKDSDQVAQSDGEESPAAEEQLLGEHIKEEKEESEFLPSSGGTFNISVSGDIDGLITQALLTGNFESAVDLCLHDNRMADAIILAIAGGQELLARTQKKYFAKSQSKITRLITAVVMKNWKEIVESCDLKNWREALAAVLTYAKPDEFSALCDLLGTRLENEGDSLLQTQACLCYICAGNVEKLVACWTKAQDGSHPLSLQDLIEKVVILRKAVQLTQAMDTSTVGVLLAAKMSQYANLLAAQGSIAAALAFLPDNTNQPNIMQLRDRLCRAQGEPVAGHESPKIPYEKQQLPKGRPGPVAGHHQMPRVQTQQYYPHGENPPPPGFIMHGNVNPNAAGQLPTSPGHMHTQVPPYPQPQPYQPAQPYPFGTGGSAMYRPQQPVAPPTSNAYPNTPYISSASSYTGQSQLYAAQHQASSPTSSPATSFPPPPSSGASFQHGGPGAPPSSSAYALPPGTTGTLPAASELPASQRTGPQNGWNDPPALNRVPKKKKMPENFMPPVPITSPIMNPLGDPQSQMLQQQPSAPVPLSSQSSFPQPHLPGGQPFHGVQQPLGQTGMPPSFSKPNIEGAPGAPIGNTFQHVQSLPTKKITKKPIPDEHLILKTTFEDLIQRCLSSATDPQTKRKLDDASKRLEFLYDKLREQTLSPTITSGLHNIARSIETRNYSEGLTMHTHIVSTSNFSETSAFMPVLKVVLTQANKLGV
B5: SEC24B (protein, UniProt O95487 1-1268)
chain: MSAPAGSSHPAASARIPPKFGGAAVSGAAAPAGPGAGPAPHQQNGPAQNQMQVPSGYGLHHQNYIAPSGHYSQGPGKMTSLPLDTQCGDYYSALYTVPTQNVTPNTVNQQPGAQQLYSRGPPAPHIVGSTLGSFQGAASSASHLHTSASQPYSSFVNHYNSPAMYSASSSVASQGFPSTCGHYAMSTVSNAAYPSVSYPSLPAGDTYGQMFTSQNAPTVRPVKDNSFSGQNTAISHPSPLPPLPSQQHHQQQSLSGYSTLTWSSPGLPSTQDNLIRNHTGSLAVANNNPTITVADSLSCPVMQNVQPPKSSPVVSTVLSGSSGSSSTRTPPTANHPVEPVTSVTQPSELLQQKGVQYGEYVNNQASSAPTPLSSTSDDEEEEEEDEEAGVDSSSTTSSASPMPNSYDALEGGSYPDMLSSSASSPAPDPAPEPDPASAPAPASAPAPVVPQPSKMAKPFGYGYPTLQPGYQNATAPLISGVQPSNPVYSGFQQYPQQYPGVNQLSSSIGGLSLQSSPQPESLRPVNLTQERNILPMTPVWAPVPNLNADLKKLNCSPDSFRCTLTNIPQTQALLNKAKLPLGLLLHPFRDLTQLPVITSNTIVRCRSCRTYINPFVSFIDQRRWKCNLCYRVNDVPEEFMYNPLTRSYGEPHKRPEVQNSTVEFIASSDYMLRPPQPAVYLFVLDVSHNAVEAGYLTILCQSLLENLDKLPGDSRTRIGFMTFDSTIHFYNLQEGLSQPQMLIVSDIDDVFLPTPDSLLVNLYESKELIKDLLNALPNMFTNTRETHSALGPALQAAFKLMSPTGGRVSVFQTQLPSLGAGLLQSREDPNQRSSTKVVQHLGPATDFYKKLALDCSGQQTAVDLFLLSSQYSDLASLACMSKYSAGCIYYYPSFHYTHNPSQAEKLQKDLKRYLTRKIGFEAVMRIRCTKGLSMHTFHGNFFVRSTDLLSLANINPDAGFAVQLSIEESLTDTSLVCFQTALLYTSSKGERRIRVHTLCLPVVSSLADVYAGVDVQAAICLLANMAVDRSVSSSLSDARDALVNAVVDSLSAYGSTVSNLQHSALMAPSSLKLFPLYVLALLKQKAFRTGTSTRLDDRVYAMCQIKSQPLVHLMKMIHPNLYRIDRLTDEGAVHVNDRIVPQPPLQKLSAEKLTREGAFLMDCGSVFYIWVGKGCDNNFIEDVLGYTNFASIPQKMTHLPELDTLSSERARSFITWLRDSRPLSPILHIVKDESPAKAEFFQHLIEDRTEAAFSYYEFLLHVQQQICK

No constants are given. Whether binding was seen depends on the method and setting. Binding seen in cells or lysates may run through a third protein. Here binding means that the protein was enriched with, or labelled near, the bait; the list need not be complete. For some of these results: Sequences can lack the tags named with a protein.

One assay has as its target EGFP-tagged wild-type SEC23B (human) (UniProt Q15437). Kind of assay: affinity purification with mass spectrometry; anti-GFP (Abcam ab290) immunoprecipitation from lysates of stable Nthy-ori 3-1 cells, 10 mg total protein as 2 mg/ml lysates; cells untreated or treated with MG132 (10 uM, 24 h); normal rabbit IgG and Nthy-EGFP cells as negative controls; SDS-PAGE, then mass spectrometry.
For B1, the binding entry is on record as “binds”.

For the molecule B2, the binding entry was “binds”.

On to B3, for which the binding entry is on record as “binds”.

Turning to B4, the binding entry is “binds”.

A further assay has as its target EGFP-tagged p.Val594Gly mutant SEC23B (human) (UniProt Q15437). Described as above.
B2: the binding result is recorded as “binds”.

Consider B5, for which the binding result is listed as “binds”.

Regarding B4, the binding result is “binds”.
